1 molecule from publication PMC7028283 can be followed below.

These are yes or no findings as the source states them, for the method shown. In cells and extracts the contact can be indirect. Some entries that bind do so weakly or less than the wild type.

The assay addresses T1, 20S proteasome subunit β5 (mouse (endogenous in MIN6)) (UniProt O55234).
T1 sequence: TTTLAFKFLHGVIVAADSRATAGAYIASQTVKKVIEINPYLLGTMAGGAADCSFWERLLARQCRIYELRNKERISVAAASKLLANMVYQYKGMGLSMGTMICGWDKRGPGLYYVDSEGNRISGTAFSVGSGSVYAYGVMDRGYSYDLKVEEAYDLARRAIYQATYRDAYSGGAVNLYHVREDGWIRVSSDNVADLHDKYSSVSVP
Nature of the assay: co-IP; extracts of MIN6 cells, IFNβ treated (24 h) or untreated; immuno-precipitation with the antibodies indicated in the figure, then western blot. (A western blot detects proteins with antibodies after separation by electrophoresis.)

B1: immunoproteasome 20S subunit β5i (protein, UniProt P28063 73-276)
chain: TTTLAFKFQHGVIVAVDSRATAGSYISSLRMNKVIEINPYLLGTMSGCAADCQYWERLLAKECRLYYLRNGERISVSAASKLLSNMMLQYRGMGLSMGSMICGWDKKGPGLYYVDDNGTRLSGQMFSTGSGNTYAYGVMDSGYRQDLSPEEAYDLGRRAIAYATHRDNYSGGVVNMYHMKEDGWVKVESSDVSDLLYKYGEAAL
B1: the binding result is “binds”.
